The test system of the assay is anti-desmoglein-3 scFv antibody binding to human DSG3. Kind of assay: blockers of pathogenic pemphigus antibody–desmoglein-3 binding – biochemical, validation compound set, bead-based, flow cytometry, pilot screen (AID 588368).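 Also: signal is the median channel fluorescence of bead-bound GFP antibody.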 Conditions: Protein G beads, DSG3-Fc, scFv-GFP binding, at 10 µM, hits give low values. On the technique in general: In flow cytometry, cells or beads pass a laser one at a time.

The entries are a selection whose mix differs from that of the whole data set. Calls of active or inactive are those of the source.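 The calls were made as follows: active = binding below the plate cutoff, the plate median minus 3 SD, with a reading above zero; inconclusive = below the plate cutoff but reading exactly zero; inactive = the rest.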

As for `CN[C@H]1C[C@H]2O[C@@](C)([C@H]1OC)n1c3ccccc3c3c4c(c5c6ccccc6n2c5c31)C(=O)NC4`, the binding (% of control) is inactive: 101%.

For the origin of these results see PubChem BioAssay.
